{"source": "PubChem BioAssay AID504467", "about": "(National Center for Advancing Translational Sciences (NCATS), 2011)", "note": "The whole screen tested about 330,000 compounds, of which about 7,700 (2.3%) were called active. Inconclusive results, whose numbers are uncertain, are shown with a selection of clear calls. Calls come from the whole dose curve; as a rule, active = well fitted inhibition curve with a large enough effect; inconclusive = small, poorly fitted or top-dose-only effect, or effect the other way; inactive = flat fitted curve, though single readings scatter. Potencies of inconclusive entries are doubtful fits and often do not repeat. Potency is the fitted concentration of half-maximal effect."}
{"assay": "qHTS screen for small molecules that inhibit ELG1-dependent DNA repair in human embryonic kidney (HEK293T) cells expressing luciferase-tagged ELG1; note: nearly all actives have a fitted effect of over 55% in size", "conditions": "HEK293T ELG1-luciferase reporter, luminescence, 16 h, DNA damage induced by 5-fluorouridine; series mostly up to 46.1 µM", "method_in_brief": "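Reporter activity after DNA damage by 5-fluorouridine is monitored. Compound-treated cells incubate 16 hr at 37 °C, then ONE-Glo is added for 30 min before luminescence reading.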"}
{"molecule": "c1ccc(Sc2ncnc3c2oc2ccccc23)nc1", "Potency": "inconclusive: 2.91 µM [activator, full curve, poor fit]"}
{"molecule": "Cc1ccc(/C=C/C(=O)OCn2nnc3ccccc3c2=O)o1", "Potency": "inactive"}
{"molecule": "Cc1cccc(N2CCN(C(=O)c3ccc4nc(N5CCCCC5)sc4c3)CC2)c1C", "Potency": "active: 23.1 µM"}
{"molecule": "Cc1ccc(NC(=O)CCS(=O)(=O)c2ccc3c(c2)NC(=O)C(C)S3)nc1", "note": "(configuration not stated)", "Potency": "inactive"}
{"molecule": "COc1nc(NCCO)nc(Nc2ccccc2F)n1", "Potency": "inconclusive: 10.3 µM [activator, partial curve]"}
{"molecule": "CC(C)c1ccc(C(=O)CC2(O)C(=O)N(CN3CCOCC3)c3ccccc32)cc1", "note": "(configuration not stated)", "Potency": "inconclusive: 25.9 µM [activator, single point]"}
{"molecule": "S=C(Nc1ccc(N2CCOCC2)cc1)Nc1ccc2snnc2c1", "Potency": "inactive"}
{"molecule": "Cc1ccc(S(=O)(=O)Cc2nc3ccccc3c(=O)[nH]2)cc1", "Potency": "inactive"}
{"molecule": "Cc1cc(C)c2c(=O)n(CC(=O)NCCCN3CCN(c4ccccc4F)CC3)sc2n1", "Potency": "inconclusive: 18.4 µM [activator, single point]"}
{"molecule": "COc1ccc(COCC(O)CN2CCC(CN3C(=O)c4cccc5cccc(c45)C3=O)CC2)cc1OC", "note": "(configuration not stated)", "Potency": "inconclusive: 20.6 µM [inhibitor, partial curve]"}
{"molecule": "COc1cccc(C(=O)O/N=C(\\N)c2ccncc2)c1", "Potency": "inconclusive: 20.6 µM [activator, partial curve]"}
{"molecule": "CCc1cccc(NC(=O)CCS(=O)(=O)c2ccc(Br)cc2)c1", "Potency": "inactive"}
{"molecule": "COc1ccc(CNS(=O)(=O)NCc2ccc(OC)c(OC)c2)cc1", "Potency": "inconclusive: 20.6 µM [inhibitor, single point]"}
{"molecule": "Cc1cc(C(=O)CN2C(=O)C(=O)N(Cc3ccccc3)C2=O)c(C)n1-c1ccccc1F", "Potency": "inactive"}
{"molecule": "NC(=O)NNc1cccc(Cl)n1", "Potency": "inconclusive: 0.146 µM [inhibitor, single point]"}
{"molecule": "CCc1ccccc1NC(=O)CN1CCN(C(=O)CNC(=O)c2ccc(-c3ccccc3)cc2)CC1", "Potency": "inconclusive: 18.3 µM [inhibitor, partial curve, poor fit]"}
{"molecule": "CC1(C)CC(NC(=O)c2cc(S(=O)(=O)N3CCOCC3)c(Cl)cc2Cl)CC(C)(C)N1", "Potency": "inactive"}
{"molecule": "CC(C)n1nnnc1SCC(=O)Nc1ccc2c(c1)OCCO2", "Potency": "inconclusive: 20.6 µM [activator, partial curve]"}
{"molecule": "O=C(/C=C/c1ccc(Cl)cc1Cl)c1ccc[nH]1", "Potency": "inconclusive: 18.3 µM [activator, partial curve]"}
{"molecule": "CCc1nnc(NC(=O)CCC(=O)N2CCN(CCOc3ccc(C)cc3)CC2)s1", "Potency": "active: 23.1 µM"}
{"molecule": "CC(C)(C)n1ncc2c(=O)n(CC(=O)c3ccc(Cl)cc3)cnc21", "Potency": "inconclusive: 5.17 µM [activator, partial curve]"}
{"molecule": "Cc1ccc(-c2cnc3cc(C)nn3c2)cc1", "Potency": "inconclusive: 2.06 µM [activator, full curve]"}
{"molecule": "O=c1[nH]c2ccccc2nc1C(Cl)c1ccccc1", "note": "(configuration not stated)", "Potency": "inconclusive: 23.1 µM [activator, single point]"}
{"molecule": "N#Cc1ccccc1NC(=O)CNc1ccc(Cl)c(C(F)(F)F)c1", "Potency": "inactive"}
{"molecule": "COCCCn1c(SCC(=O)Nc2ccc(C(C)=O)cc2)nc2ccccc2c1=O", "Potency": "inconclusive: 29.1 µM [inhibitor, single point]"}
{"molecule": "CCCOP(=O)(OCCC)C(Nc1ccc(C(=O)O)cc1)c1ccccc1", "note": "(configuration not stated)", "Potency": "inactive"}
{"molecule": "CC(Sc1nnc(-c2ccco2)n1C)C(=O)N1C(C)CCCC1C", "note": "(configuration not stated)", "Potency": "inactive"}
{"molecule": "CCOC(=O)c1ccc(NC(=O)N2CCc3ccccc32)cc1", "Potency": "inconclusive: 4.11 µM [activator, partial curve]"}
{"molecule": "O=C(N/N=C\\c1cc(Br)ccc1O)c1ccc(S(=O)(=O)N2CCCCC2)cc1", "Potency": "inconclusive: 5.8 µM [inhibitor, single point]"}
{"molecule": "CCOc1ccc(OCCCC(=O)ON=C(N)c2ccccc2Cl)cc1", "Potency": "inactive"}
{"molecule": "Cc1ccc(NC(=S)c2ccncc2)c(C)c1", "Potency": "inactive"}
{"molecule": "COc1ccccc1-c1nnc(SCC(=O)N2CCCC2)o1", "Potency": "inconclusive: 16.4 µM [activator, partial curve]"}
{"molecule": "CCCCSc1nnc(-c2ccc(OC)cc2)n1C", "Potency": "inconclusive: 10.3 µM [activator, partial curve]"}
{"molecule": "CCc1ccc(OCC(=O)Nc2ccc(S(=O)(=O)N3CCOCC3)cc2)cc1", "Potency": "inactive"}
{"molecule": "CCc1ccc(CN2CCC(n3nccc3NC(=O)c3ccccc3C)CC2)cc1", "Potency": "inconclusive: 20.6 µM [inhibitor, single point]"}
{"molecule": "CC1CC(NS(=O)(=O)c2cc3c4c(c2)CCN4C(=O)CC3)CC(C)(C)C1", "note": "(configuration not stated)", "Potency": "inconclusive: 29.1 µM [activator, single point]"}
{"molecule": "CSc1ccccc1NC(=O)c1ccccn1", "Potency": "inconclusive: 14.6 µM [activator, partial curve, poor fit]"}
{"molecule": "Brc1ccc2nc(-c3c[nH]c4ccccc34)cn2c1", "Potency": "inconclusive: 2.06 µM [activator, full curve]"}
{"molecule": "CCc1ccc(C(CNc2nc(C(F)(F)F)nc3ccccc23)N(C)C)cc1", "note": "(configuration not stated)", "Potency": "inconclusive: 29.1 µM [inhibitor, single point]"}
{"molecule": "CCn1c(COc2ccc(Cl)cc2)nnc1SCc1nc2ccccc2[nH]1", "Potency": "inconclusive: 23.1 µM [inhibitor, single point]"}
{"molecule": "COc1ccc(NC(=O)CCCc2ccccc2)cc1OC", "Potency": "inconclusive: 4.61 µM [activator, partial curve]"}
{"molecule": "COc1cccc(C2NC(=O)c3sc(=S)n(-c4ccccc4)c3N2)c1", "note": "(configuration not stated)", "Potency": "inconclusive: 18.4 µM [inhibitor, partial curve]"}
{"molecule": "COc1ccc(CCNC(=O)Cn2c(=O)n(Cc3ccco3)c(=O)c3ccc(Cl)cc32)cc1OC", "Potency": "inconclusive: 23.1 µM [inhibitor, partial curve]"}
{"molecule": "O=C(/C=C/c1ccccc1Cl)NCCCn1ccnc1", "Potency": "inactive"}
{"molecule": "Cc1ccc2c3c([nH]c2c1)C(=O)CC(C)(C)S3", "Potency": "inconclusive: 16.4 µM [activator, partial curve, poor fit]"}
{"molecule": "CCC(C)c1ccc(S(=O)(=O)N2CCN(C(C)CC(=O)O)CC2)cc1", "note": "(configuration not stated)", "Potency": "inactive"}
{"molecule": "O=C(Nc1ccsc1C(=O)O)c1cccc(C(F)(F)F)c1", "Potency": "inconclusive: 20.6 µM [activator, partial curve]"}
